In PMC7848109:
These are yes or no findings as the source states them, for the method shown. Binding seen in cells or lysates may run through a third protein. Some results given as binding are weak or reduced against the parent protein; the word gives no strength.

Chains of the proteins cited; added tags and fusions are not shown.
UniProt Q91XJ1: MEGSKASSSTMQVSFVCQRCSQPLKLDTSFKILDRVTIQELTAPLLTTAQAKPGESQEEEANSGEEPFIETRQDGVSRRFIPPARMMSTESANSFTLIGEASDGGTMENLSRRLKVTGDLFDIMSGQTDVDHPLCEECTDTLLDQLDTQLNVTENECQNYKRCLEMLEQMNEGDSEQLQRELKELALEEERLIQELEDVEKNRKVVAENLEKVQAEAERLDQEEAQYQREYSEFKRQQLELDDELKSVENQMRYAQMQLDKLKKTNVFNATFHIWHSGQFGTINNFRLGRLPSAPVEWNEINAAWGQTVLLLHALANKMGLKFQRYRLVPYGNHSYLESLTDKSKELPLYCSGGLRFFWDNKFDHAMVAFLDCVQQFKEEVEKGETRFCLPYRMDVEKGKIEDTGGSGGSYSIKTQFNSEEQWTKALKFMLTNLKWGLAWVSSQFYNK
UniProt P49950: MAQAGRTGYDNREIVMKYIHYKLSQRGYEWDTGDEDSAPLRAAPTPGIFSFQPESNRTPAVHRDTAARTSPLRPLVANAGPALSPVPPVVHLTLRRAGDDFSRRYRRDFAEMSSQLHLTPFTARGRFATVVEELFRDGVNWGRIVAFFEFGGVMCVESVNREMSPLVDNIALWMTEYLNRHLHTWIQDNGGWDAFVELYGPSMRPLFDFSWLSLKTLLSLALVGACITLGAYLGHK

Target: beclin1 (rat (endogenous in corpus luteum)) (UniProt Q91XJ1)
Experiment: co-IP; fresh corpus luteum of pregnant rats (Day 1, 4 and 10; Day 1 with or without echinomycin) homogenized in immunoprecipitation lysis buffer; precipitated with anti-BNIP3 or anti-beclin1 antibody overnight at 4°C on Protein A/G PLUS-agarose, washed with PBS, blotted for Bcl-2

binding: binds
Substance: Bcl-2 (from UniProt P49950 1-236)
